Some of the results follow. Rule as the data show it: active = 150% or more and inactive = the rest. Single values are uncertain, as repeats are few or missing.

This assay has as its system Staphylococcus aureus JE2-lux inside RAW 264.7 macrophages. The assay is described as follows: intracellular bacterial bioluminescence relative to DMSO vehicle; higher = higher intracellular bacterial metabolic activity. Particulars: 10 µM; treatment time 4 h; gentamicin 50 µg/ml. Here is the method:
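RAW 264.7 macrophages infected with bioluminescent MRSA JE2-lux (MOI 100) were dispensed into 384-well plates with 10 µM compound in the presence of 50 µg/ml gentamicin. After 4 h at 37 °C, bacterial bioluminescence (a proxy for intracellular bacterial metabolic activity) and host cell viability (CellTiter-Fluor) were read and normalised to 0.1% DMSO vehicle controls. Single-pass screen of the UNC CICBDD kinase-targeted library (>4,700 compounds).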
Regarding `COc1ccccc1NC(=O)CSc1nnc2cc(C)c3ccccc3n12`, the intracellular bacterial bioluminescence was inactive: 83.8%.

With `N#Cc1cc2cc3c(cc2nc1NCCNS(=O)(=O)c1ccccc1)OCO3`, the intracellular bacterial bioluminescence is inactive: 91.3%.

Take `COc1ccc(Cl)cc1NC(=O)c1cccn(OCc2ccccc2F)c1=O`: the intracellular bacterial bioluminescence is inactive: 24.7%.

As for `CNc1nnc(CSc2nc(C)cc(C)n2)s1`, the intracellular bacterial bioluminescence was inactive: 78.8%.

As for `O=C(CCn1c(=O)oc2ccccc21)NCCC1=CCCCC1`, the intracellular bacterial bioluminescence is inactive: 87.2%.

Regarding `N#CC1=C(N)Oc2c(oc(CO)cc2=O)C1c1ccc(C(F)(F)F)cc1` (stereo not given), the intracellular bacterial bioluminescence is inactive: 114%.

As to `Cc1cc(C)c2cc(C#N)c(N3CCCN(C(=O)c4ccc(F)cc4F)CC3)nc2c1`, the intracellular bacterial bioluminescence is inactive: 99.5%.

Take `COc1ccccc1C(=O)Nc1ncc(S(=O)(=O)c2ccc([N+](=O)[O-])cc2)s1`: the intracellular bacterial bioluminescence was inactive: 54.1%.

With `CCC(=O)Nc1c(-c2ccccc2)c2cc(Br)ccc2[nH]c1=O`, the intracellular bacterial bioluminescence is inactive: 96.4%.

For the molecule `Cc1ccc(S(=O)(=O)NC(=N)NCCc2c(C)[nH]c3ccc(C)cc23)cc1`, the intracellular bacterial bioluminescence is inactive: 116%.

On to `Cc1ccc(Nc2c(C(=O)NCc3ccco3)cnc3c2c(C)nn3C)cc1`, for which the intracellular bacterial bioluminescence is inactive: 49.5%.

As to `C=CCOc1ccc(C2CC(=O)Nc3c2cnn3-c2nc3ccccc3s2)cc1OCC` (stereo not given), the intracellular bacterial bioluminescence was inactive: 65.9%.

With `Cc1nc2c(c(=O)n1CC(=O)Nc1ccc(F)cc1)CCN(Cc1ccccc1)C2`, the intracellular bacterial bioluminescence is inactive: 29.1%.

For `O=C(Nc1sc2c(c1C(=O)NCC1CCCO1)CCCC2)c1cc(-c2cccs2)on1` (stereo not given), the intracellular bacterial bioluminescence is inactive: 106%.

In the case of `O=C1Nc2ccccc2/C1=C1/SC(=S)N(c2ccccc2F)C1=O`, the intracellular bacterial bioluminescence was inactive: 102%.

With `COc1ccc(C(=O)Nc2nc3ccc(S(=O)(=O)N4CCCC4)cc3s2)c(OC)c1`, the intracellular bacterial bioluminescence was inactive: 91.4%.

As for `Cn1c(=O)c2c(nc(CN3CCOCC3)n2CC(=O)C(C)(C)C)n(C)c1=O`, the intracellular bacterial bioluminescence is inactive: 96.3%.

For `COc1ccc(C(NC(=O)c2cc(-c3ccccn3)n[nH]2)c2ccncc2)cc1` (stereo not given), the intracellular bacterial bioluminescence is inactive: 111%.

Consider `CC(C(=O)c1ccc(Cl)cc1)C1(O)C(=O)Nc2ccccc21` (stereo not given), for which the intracellular bacterial bioluminescence was inactive: 80.1%.

Take `O=C(CSc1ncnc2ccccc12)NC1CCCCC1`: the intracellular bacterial bioluminescence was inactive: 80.7%.

As to `Cc1cc(SCC(=O)NC2CCCCC2)nc(=O)[nH]1`, the intracellular bacterial bioluminescence is active: 151%.

With `O=C(Cn1nc(-c2ccoc2)oc1=O)NC1CCCCC1`, the intracellular bacterial bioluminescence was inactive: 107%.

In the case of `COC(=O)N1CCc2c(sc(NC(=O)c3cccc(N4C(=O)CCC4=O)c3)c2C(N)=O)C1`, the intracellular bacterial bioluminescence was inactive: 126%.

Take `COc1ccc(/C=C/C(=O)Nc2ccc(S(=O)(=O)N3CCc4ccccc43)cc2)cc1`: the intracellular bacterial bioluminescence was inactive: 122%.

For the molecule `Nc1ccc(-c2ccc(N)c([N+](=O)[O-])c2)cc1[N+](=O)[O-]`, the intracellular bacterial bioluminescence is inactive: 79.5%.

With `COc1ccc(-n2nnc3c(N4CCN(C(=O)C(=O)c5c[nH]c6ccccc56)CC4)ncnc32)cc1`, the intracellular bacterial bioluminescence is inactive: 36.4%.

As to `COc1ccccc1NC(=O)Nc1nc(-c2cccnc2)nc2ccccc12`, the intracellular bacterial bioluminescence was inactive: 119%.

Consider `Cc1nc(-n2nc(C)c(Cc3ccccc3)c2O)sc1C(=O)NC(C)C`, for which the intracellular bacterial bioluminescence is inactive: 110%.

Consider `COC(=O)c1c(-c2cccc(F)c2)noc1NCc1ccc(F)cc1`, for which the intracellular bacterial bioluminescence was inactive: 81.1%.

Consider `COc1cccc(-n2nnc3c(N4CCN(C(=O)COc5ccc(Cl)cc5)CC4)ncnc32)c1`, for which the intracellular bacterial bioluminescence is inactive: 60.7%.

On to `CC(C)c1ccc(C2C(C#N)=C(SCC(N)=O)NC3=C2C(=O)CCC3)cc1` (stereo not given), for which the intracellular bacterial bioluminescence is inactive: 84.6%.

With `Cc1n[nH]c2c1C(c1ccc(-c3cccc([N+](=O)[O-])c3)o1)C(C#N)=C(N)O2` (stereo not given), the intracellular bacterial bioluminescence is inactive: 106%.

For the molecule `Cc1ccc(OCC(=O)N/N=C2/C(=O)Nc3c(Br)cc(Br)cc32)cc1`, the intracellular bacterial bioluminescence is inactive: 129%.

On to `COc1ccc(-c2nnc(-c3ccccc3)o2)cc1S(=O)(=O)N1CCc2ccccc2C1`, for which the intracellular bacterial bioluminescence was inactive: 77.5%.

`Cc1cccc(Cl)c1NC(=O)CCc1nc(CSc2nc3ccccc3o2)no1`: the intracellular bacterial bioluminescence is inactive: 76.3%.

On to `Cc1cc2c(=O)n(CC(=O)Nc3ccc(F)c(Cl)c3)cnc2s1`, for which the intracellular bacterial bioluminescence was inactive: 18.2%.

In the case of `Cc1cccc(NC(=O)Cn2c(=O)c3cnc(-c4ccccc4)nc3n(C)c2=O)n1`, the intracellular bacterial bioluminescence is inactive: 91.2%.

Turning to `C#CCn1/c(=N/C(=O)c2ccc(Cl)s2)sc2cc(NC(C)=O)ccc21`, the intracellular bacterial bioluminescence was inactive: 60.3%.

With `O=C(CSc1nc2c(oc3ccccc32)c(=O)n1Cc1cccs1)NCc1ccc(F)cc1`, the intracellular bacterial bioluminescence was inactive: 115%.

In the case of `O=C(NCC1COC2(CCCCC2)O1)C(=O)Nc1ccccc1[N+](=O)[O-]` (stereo not given), the intracellular bacterial bioluminescence was inactive: 95.6%.

Consider `Clc1ccc2nc(N3CCc4ccccc4C3)sc2c1`, for which the intracellular bacterial bioluminescence was inactive: 111%.

For `O=C(CSc1nc2ccc(Br)cc2c2nc3ccccc3n12)Nc1nccs1`, the intracellular bacterial bioluminescence was inactive: 109%.

As for `COc1cc(OC)c(OC)cc1/C=N\NC(=O)CCC1C(=O)NN=C1C` (stereo not given), the intracellular bacterial bioluminescence was inactive: 110%.

With `Cc1ccc(NC(=O)CSc2nc3cc4c(cc3cc2C#N)OCO4)c(C)c1`, the intracellular bacterial bioluminescence was inactive: 78.4%.

For `Cc1[nH]c2ccccc2c1C(=O)CSc1ncnc2sc3c(c12)CCC3`, the intracellular bacterial bioluminescence was inactive: 116%.

As to `CCOC(=O)c1ccccc1NC(=O)CSc1ncnc2c1cnn2-c1ccc(F)cc1`, the intracellular bacterial bioluminescence is inactive: 118%.

On to `O=C(Cn1cccc1-c1nc(-c2ccc(Cl)cc2)cs1)N1CCc2ccccc21`, for which the intracellular bacterial bioluminescence is inactive: 111%.

As for `C=CCc1cccc2cc(C(=O)NNC(=O)c3ccc(C)cc3)c(=O)oc12`, the intracellular bacterial bioluminescence is inactive: 118%.

`O=C(Nc1nc2ccc([N+](=O)[O-])cc2s1)c1cccc(NS(=O)(=O)c2ccc(Cl)cc2)c1`: the intracellular bacterial bioluminescence was inactive: 98.2%.

As for `O=C(Nc1ccc(F)cc1)/C(O)=C1\C(=O)Nc2ccc([N+](=O)[O-])cc21`, the intracellular bacterial bioluminescence is inactive: 106%.

Turning to `O=C(COc1ccccc1)c1ccc(O)c(O)c1O`, the intracellular bacterial bioluminescence was inactive: 104%.

Consider `CC(NC(=O)c1ncoc1-c1ccc(F)cc1)C(=O)N1CCCCC1` (stereo not given), for which the intracellular bacterial bioluminescence was inactive: 96.6%.

For the molecule `COC(=O)C1=C(C)N(Cc2ccccc2)C(=O)NC1c1ccccc1F` (stereo not given), the intracellular bacterial bioluminescence is inactive: 97.4%.

On to `Cc1ccc2nc(NC(=O)CSc3nc(=O)n(N4CCN(C)CC4)c4c3CCCC4)sc2c1`, for which the intracellular bacterial bioluminescence is inactive: 128%.

With `COc1ccc(NC(=O)CNCCO)c(OC)c1`, the intracellular bacterial bioluminescence was inactive: 105%.

As for `Cc1cc2c(o1)CCc1sc(N(C)C(=O)c3cc(C(C)(C)C)nn3C)nc1-2`, the intracellular bacterial bioluminescence is inactive: 115%.

Consider `CCS(=O)(=O)c1ccc(C(=O)/N=c2/sc3c(C)cc(C)cc3n2C)cc1`, for which the intracellular bacterial bioluminescence is inactive: 93.4%.

For `CCc1ccc(OCC(=O)Nc2noc(-c3ccc(C)cc3)n2)cc1`, the intracellular bacterial bioluminescence was inactive: 90.9%.

With `COc1ccc(C(=O)NCCNc2nc3c(C)cccc3cc2C#N)cc1`, the intracellular bacterial bioluminescence was inactive: 101%.

Regarding `COCCNC(=O)CSc1nc(-c2ccccc2)nc2ccc(Cl)cc12`, the intracellular bacterial bioluminescence is inactive: 100%.

On to `Cc1ccc(-c2cc(C(F)(F)F)n3nc(C(=O)Nc4ccc5c(c4)OCO5)nc3n2)cc1`, for which the intracellular bacterial bioluminescence was inactive: 77%.

For the molecule `Cc1ccc(NC(=O)c2cc3c(CO)cnc(C)c3o/c2=N\c2cccc3ccccc23)cc1C`, the intracellular bacterial bioluminescence is inactive: 120%.

`COc1cc(C2=NN3C(C2)c2ccccc2OC3c2cccs2)ccc1O` (stereo not given): the intracellular bacterial bioluminescence was inactive: 105%.

On to `CC1(C)Oc2ccc(NC(=O)COc3ccc(CN4CCCC4)cc3)cc2O1`, for which the intracellular bacterial bioluminescence is inactive: 91.8%.

With `Cc1cc2c(=O)n(CC(=O)N3CCC(O)(c4ccccc4C)CC3)cnc2s1`, the intracellular bacterial bioluminescence is inactive: 111%.

`COc1cccc(C(=O)Nc2cccc(-c3nc4ncccc4o3)c2)c1`: the intracellular bacterial bioluminescence was inactive: 70.7%.

As to `Cc1nc(Nc2ccc(NC(=O)Nc3cccc(C(F)(F)F)c3)cc2)cc(N2CCOCC2)n1`, the intracellular bacterial bioluminescence is inactive: 78.1%.

As to `CC(C)(C)c1nc(SCC(=O)Nc2ccc3c(c2)OCO3)c2ccccc2n1`, the intracellular bacterial bioluminescence is inactive: 88%.

For `Cc1ccc(F)cc1Nc1ncnc(N)c1[N+](=O)[O-]`, the intracellular bacterial bioluminescence was inactive: 89.2%.

Take `Cc1ccc(C(=O)Nc2ccc3c(c2)C(=O)NC3=O)cc1C`: the intracellular bacterial bioluminescence is inactive: 100%.

`CC(C)c1ccc2nc3sc(C(=O)Nc4nccs4)c(N)c3cc2c1`: the intracellular bacterial bioluminescence is inactive: 79.2%.

With `Cc1cccc(C(c2sc3nc(C)nn3c2O)N2CCCC2)c1` (stereo not given), the intracellular bacterial bioluminescence is inactive: 98.6%.

For `CC1CCc2c(sc3ncnc(NCCN4CCOCC4)c23)C1` (stereo not given), the intracellular bacterial bioluminescence was inactive: 97.4%.

In the case of `CCN(C(=O)C1CCCCC1)c1nc2c(s1)CCc1oc(C)cc1-2`, the intracellular bacterial bioluminescence is inactive: 89.3%.

In the case of `COc1ccc(NC(=O)CSc2nc3ccccc3o2)cc1`, the intracellular bacterial bioluminescence is inactive: 103%.

On to `Cc1ccc(C2=NS(=O)(=O)N(C)C(C(=O)Nc3cc(C)n(CC(=O)Nc4cccnc4)n3)=C2)cc1`, for which the intracellular bacterial bioluminescence is inactive: 101%.

On to `Cc1c(C(=O)Oc2cc(N)n(S(C)(=O)=O)n2)cccc1[N+](=O)[O-]`, for which the intracellular bacterial bioluminescence is inactive: 95.5%.

In the case of `CCC(=O)Nc1ccc(N2C(=O)CS/C2=N\NC(=O)c2ccc(O)cc2)cc1`, the intracellular bacterial bioluminescence was active: 156%.

As to `Cc1ccc(-n2c(=O)c3oc4ccccc4c3n(CC(=O)Nc3ccccc3F)c2=O)cc1`, the intracellular bacterial bioluminescence is inactive: 94.8%.

Take `CC(=O)Nc1cccc(NC(=O)CSc2nnc(NC(=O)Cc3ccc(F)cc3)s2)c1`: the intracellular bacterial bioluminescence is inactive: 75.9%.

Take `O=C(CS(=O)(=O)c1ccccc1)Nc1cccc2c1C(=O)c1ccccc1C2=O`: the intracellular bacterial bioluminescence is inactive: 69.4%.

Consider `Brc1ccc2nc(NCc3ccccn3)nc(-c3ccccc3)c2c1`, for which the intracellular bacterial bioluminescence was inactive: 13.5%.

Turning to `O=C(CSc1ncnc2[nH]ncc12)Nc1nc(-c2ccco2)c(-c2ccco2)s1`, the intracellular bacterial bioluminescence is inactive: 111%.

In the case of `O=C(NNc1nc2ccc(Cl)cc2s1)c1nc2ccccc2s1`, the intracellular bacterial bioluminescence was inactive: 113%.

With `Cc1cccc(N2CCN(C(=O)c3cc(CN4CCOCC4)on3)CC2C)c1` (stereo not given), the intracellular bacterial bioluminescence was inactive: 114%.

On to `CC(=O)c1ccc(-n2nnnc2SCC(=O)c2ccc3c(c2)OCCO3)cc1`, for which the intracellular bacterial bioluminescence is inactive: 83.4%.

Turning to `CC(C)N1C(=O)c2ccccc2Sc2cc(NC(=O)c3cncc(Br)c3)ccc21`, the intracellular bacterial bioluminescence is inactive: 8.85%.

Consider `COc1ccc(NC(=O)Cn2c(=O)c3cc(Cl)ccc3n3nncc23)cc1`, for which the intracellular bacterial bioluminescence is inactive: 65.1%.

Take `CCCCc1c(C)nn(-c2nc(C)c(C(=O)Nc3cccc(C)c3C)s2)c1O`: the intracellular bacterial bioluminescence is inactive: 114%.

As for `CC(C)(C)NC(=O)c1cccc2c1-c1ccccc1C2=O`, the intracellular bacterial bioluminescence is inactive: 95.5%.

(Values after the supplement of paper PMC12578635.)
